Values quoted from earlier work in US20060094692A1, “Pharmaceutical formulations of camptothecins and process for making same” (BioNumerik Pharmaceuticals, Inc., priority 2004, published 2006).

Details: closed E-ring lactone form, in water

Question: For CC[C@@]1(O)C(=O)OCc2c1cc1n(c2=O)Cc2cc3ccccc3nc2-1 [CPT, Camptothecin], which water solubility is on record?
Answer: Its water solubility is “approximately 0.1 microgram of drug dissolving in 1 mL of water”.
